PubChem BioAssay AID602196 – INSERM | 2012

Assay: 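Modifiers of cisplatin sensitivity in A549 cells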
Cells: human A549 lung cancer cells
Reagents: siRNA pair against human genes
Duration: 48 h transfection before cisplatin; time from cisplatin to read-out not stated
Treatment: cisplatin at a dose killing half of control-siRNA cells; exact dose and duration not given
Measurement: 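Cisplatin cell death as a shift from the 50% death seen with control siRNA; siRNAs toxic or growth-blocking alone scored 0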
Scale: two-siRNA summed score (-2 to +2): higher = both siRNAs protect from cisplatin killing; -2 means both sensitise; mean protection from cisplatin (shift in death) and protection from cisplatin (shift in death), siRNA C and protection from cisplatin (shift in death), siRNA D: higher = protection from cisplatin killing
Active means: 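Each siRNA scores 0 if harmful alone by LDH or WST-1, otherwise +1 if it reduces and -1 if it increases cisplatin killing; a gene is active when both siRNAs agree (sum +2 or -2)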
Meaning of the calls: active = both siRNAs shift cisplatin killing the same way; inactive = no consistent shift, or siRNA harmful alone
Here is an unselected part of about 23,000 deposited reagents. In the full data, 455 (2%) were called active. 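Active includes both protection and sensitisation; some change values fall well beyond the stated -50 to +50 range.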 Not stated in the record: the amount of reagent.

Target gene	two-siRNA summed score (-2 to +2)	mean protection from cisplatin (shift in death) (%)	protection from cisplatin (shift in death), siRNA C (%)	protection from cisplatin (shift in death), siRNA D (%)	activity call
CDKAL1	1	10.4	-0.4	21.2	inactive
QPCT	0	5.1	2.8	7.5	inactive
PKD1	-1	9.1	-19.9	38.2	inactive
FZD8	0	9.4	14.5	4.3	inactive
LOC440724	0	12.2	12.1	12.2	inactive
LOC442400	0	7.7	3.8	11.5	inactive
TMEM101	0	8.8	-3.7	21.2	inactive
DEFB132	1	11.7	15.4	8	inactive
PRH2	0	6.9	-0.2	13.9	inactive
RARRES1	0	-9.1	-16.5	-1.6	inactive
LOC400818	0	4	7.8	0.3	inactive
PPA2	1	11.1	13.2	9	inactive
LOC440787	0	7	5.4	8.6	inactive
LINC01785	0	17.6	19.6	15.6	inactive
COL23A1	0	13.6	11.1	16	inactive
MYL11	0	3.4	-3	9.7	inactive
TTC39A	1	9.8	6.1	13.4	inactive
SP2	1	10.4	21.5	-0.8	inactive
FAM217B	0	7.8	5.4	10.3	inactive
DGLUCY	0	-0.9	-7.9	6.2	inactive
SDE2	0	12.9	12.6	13.1	inactive
LOC442584	0	-2.8	-4.5	-1.2	inactive
SUPT4H1	-1	-2.5	-15	9.9	inactive
LOC389073	0	9.7	7.2	12.2	inactive
SMAD2	0	5.1	1.7	8.6	inactive
TPCN1	-1	-19.5	5.2	-44.1	inactive
EPYC	0	-2.3	0.1	-4.7	inactive
TF	0	19.1	22	16.2	inactive
ZNF561	0	4.3	14	-5.4	inactive
ABCC3	0	-10.9	-28.7	6.9	inactive
TMEM259	0	3.3	-3.2	9.9	inactive
CERK	0	1.6	-10.3	13.6	inactive

Next part; the last 8 above are carried over.
Target gene	two-siRNA summed score (-2 to +2)	mean protection from cisplatin (shift in death) (%)	protection from cisplatin (shift in death), siRNA C (%)	protection from cisplatin (shift in death), siRNA D (%)	activity call
SMAD2	0	5.1	1.7	8.6	inactive
TPCN1	-1	-19.5	5.2	-44.1	inactive
EPYC	0	-2.3	0.1	-4.7	inactive
TF	0	19.1	22	16.2	inactive
ZNF561	0	4.3	14	-5.4	inactive
ABCC3	0	-10.9	-28.7	6.9	inactive
TMEM259	0	3.3	-3.2	9.9	inactive
CERK	0	1.6	-10.3	13.6	inactive
CCDC90B	0	1.6	7.7	-4.5	inactive
SPECC1L	0	1.6	4.7	-1.6	inactive
GET1P1	0	5.8	20.6	-9	inactive
GABRA3	0	-5.1	10.8	-21	inactive
FAM9C	1	10.6	-0.5	21.8	inactive
CDHR1	1	14.6	8.5	20.8	inactive
NR2C2AP	0	1	9.5	-7.5	inactive
TM4SF20	0	-5.7	0.7	-12.1	inactive
LOC389666	0	7.7	15.4	0	inactive
TGFBR1	1	11.2	18	4.3	inactive
ELOA	0	0.7	2.8	-1.3	inactive
LOC442365	0	19.9	12.5	27.4	inactive
TRIM62	0	-11.4	-11.9	-10.9	inactive
PAX3	-1	-20.8	-40.5	-1	inactive
HES4	0	-6.6	-13.4	0.3	inactive
NXT1	0	-0.6	-3.7	2.5	inactive
MGAT4A	1	4.6	12.9	-3.8	inactive
LOC341356	0	8.2	3.9	12.4	inactive
TRPV3	1	-2.6	24.7	-29.8	inactive
ENPP7	1	10.3	8	12.6	inactive
LUC7L2	0	6	4.8	7.1	inactive
TGFBR3	0	-0.5	-8.1	7.1	inactive
LRP1	0	-5	-18.3	8.3	inactive
FERMT3	1	15.7	21.7	9.7	inactive
MRPL1	0	7.8	5.2	10.4	inactive
